Source: PubChem BioAssay AID1259424 (University of Nebraska Medical Center, 2018)
The deposit covers about 14,000 reagents; shown is a part drawn at random. 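Higher correlation or smaller distance means closer resemblance to KSR1 loss; control wells, including KSR1 knockdowns, recur on many plates.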 Not all columns of the deposit are shown. Reagent sequences are not shown. The record does not give: the time to read-out.

- Aim: 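Seek colon cancer survival genes behaving like KSR1, using a six-gene signature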 (primary screen)
- Cell system: human HCT116 colon cancer cells
- Reagents: siRNA pool against human genes, 50 nM
- Measurement: 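Log2 levels of six mRNAs (branched-DNA multiplex), adjusted by two reference genes and the non-targeting median, then scored against the average KSR1 knockdown pattern as Pearson r and euclidean distance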
- Scale: mean correlation with KSR1 profile: higher = expression change more like KSR1 knockdown

| gene | mean correlation with KSR1 profile |
| --- | --- |
| LOXL1 (lysyl oxidase like 1) | 0.256 |
| RING1 (ring finger protein 1) | -0.223 |
| VAMP5 (vesicle associated membrane protein 5) | -0.327 |
| NUDT6 (nudix hydrolase 6) | -0.0652 |
| HILPDA (hypoxia inducible lipid droplet associated) | -0.742 |
| TRPM7 | 0.892 |
| PCLAF (PCNA clamp associated factor) | -0.692 |
| BBS7 (Bardet-Biedl syndrome 7) | -0.175 |
| OPN4 (opsin 4) | 0.111 |
| S1PR3 (sphingosine-1-phosphate receptor 3) | 0.455 |
| FKBP14 (FKBP prolyl isomerase 14) | -0.418 |
| ADD1 (adducin 1) | -0.425 |
| SLC43A1 | 0.337 |
| CASP10 (caspase 10) | -0.44 |
| RARRES1 (retinoic acid receptor responder 1) | -0.343 |
| MAGEA10 (MAGE family member A10) | -0.23 |
| RAD21 (RAD21 cohesin complex component) | 0.304 |
| ZNF446 (zinc finger protein 446) | -0.296 |
| SLC9A5 | -0.718 |
| CALM3 (calmodulin 3) | -0.0361 |
| KRT17 (keratin 17) | 0.0837 |
| MAPK15 (mitogen-activated protein kinase 15) | -0.0149 |
| SLC35F5 | -0.667 |
| DDX39A (DExD-box helicase 39A) | -0.0954 |
| UTP11 (UTP11 small subunit processome component) | 0.634 |
| VTCN1 (V-set domain containing T cell activation inhibitor 1) | 0.0283 |
| SERAC1 (serine active site containing 1) | 0.608 |
| RNF144A (ring finger protein 144A) | -0.193 |
| GRIA1 (glutamate ionotropic receptor AMPA type subunit 1) | -0.0494 |
| MSANTD2 (Myb/SANT DNA binding domain containing 2) | 0.497 |
| SGCA (sarcoglycan alpha) | -0.202 |
| PGS1 (phosphatidylglycerophosphate synthase 1) | -0.225 |
| RLN1 (relaxin 1) | -0.0502 |
| ZC3H15 (zinc finger CCCH-type containing 15) | -0.29 |
| POLD1 (DNA polymerase delta 1, catalytic subunit) | 0.609 |
| SERBP1 (SERPINE1 mRNA binding protein 1) | -0.784 |
| GYS2 (glycogen synthase 2) | 0.481 |
| SH3RF1 (SH3 domain containing ring finger 1) | -0.504 |
| ING1 (inhibitor of growth family member 1) | 0.17 |
| REPS2 (RALBP1 associated Eps domain containing 2) | 0.548 |
| SDS (serine dehydratase) | -0.427 |
| COX7A2L (cytochrome c oxidase subunit 7A2 like) | -0.268 |
| DGCR2 (DiGeorge syndrome critical region gene 2) | -0.177 |
| DPAGT1 (dolichyl-phosphate N-acetylglucosaminephosphotransferase 1) | 0.305 |
| TMEM106B (transmembrane protein 106B) | -0.735 |
| CA1 (carbonic anhydrase 1) | -0.347 |
| SYT1 (synaptotagmin 1) | -0.566 |
| MYO6 (myosin VI) | -0.335 |
| CXCR3 (C-X-C motif chemokine receptor 3) | -0.203 |
| PCDH10 (protocadherin 10) | 0.129 |
| GLRA2 (glycine receptor alpha 2) | -0.166 |
| SFMBT1 (Scm like with four mbt domains 1) | -0.595 |
| NVL (nuclear VCP like) | -0.0991 |
| RFC5 (replication factor C subunit 5) | -0.0193 |
| ARHGEF15 (Rho guanine nucleotide exchange factor 15) | 0.427 |
| CBX5 (chromobox 5) | 0.209 |
| SLC6A1 | 0.0508 |
| LY86 (lymphocyte antigen 86) | -0.347 |
| CENPN (centromere protein N) | -0.256 |
| RBFOX1 (RNA binding fox-1 homolog 1) | 0.178 |
| TTI2 (TELO2 interacting protein 2) | 0.328 |
| ASH2L (ASH2 like, histone lysine methyltransferase complex subunit) | -0.377 |
| DDX19B (DEAD-box helicase 19B) | 0.218 |

Already shown: 10 of the entries above.
| gene | mean correlation with KSR1 profile |
| --- | --- |
| ADD1 (adducin 1) | -0.425 |
| SLC43A1 | 0.337 |
| CASP10 (caspase 10) | -0.44 |
| RARRES1 (retinoic acid receptor responder 1) | -0.343 |
| MAGEA10 (MAGE family member A10) | -0.23 |
| RAD21 (RAD21 cohesin complex component) | 0.304 |
| ZNF446 (zinc finger protein 446) | -0.296 |
| SLC9A5 | -0.718 |
| CALM3 (calmodulin 3) | -0.0361 |
| KRT17 (keratin 17) | 0.0837 |
